Results are given in words; binding and its absence hold for the method and conditions named. In cells and extracts the contact can be indirect. Some binding calls cover weakened binding; strength is not graded here.

Sequences of proteins named here, by UniProt entry; tags and fusion partners are left off. Residues count along the entry.
UniProt P36222, residues 22-383: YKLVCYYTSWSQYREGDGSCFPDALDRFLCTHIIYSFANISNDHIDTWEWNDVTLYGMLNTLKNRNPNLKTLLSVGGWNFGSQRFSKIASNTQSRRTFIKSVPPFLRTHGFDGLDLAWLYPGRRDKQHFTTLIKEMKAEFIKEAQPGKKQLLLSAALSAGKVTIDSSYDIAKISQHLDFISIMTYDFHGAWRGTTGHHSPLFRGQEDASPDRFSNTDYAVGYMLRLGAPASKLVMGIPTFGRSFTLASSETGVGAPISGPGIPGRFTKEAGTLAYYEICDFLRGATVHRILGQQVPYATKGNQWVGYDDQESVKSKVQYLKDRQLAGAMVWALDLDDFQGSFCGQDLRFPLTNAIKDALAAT
UniProt P16070, residues 21-742: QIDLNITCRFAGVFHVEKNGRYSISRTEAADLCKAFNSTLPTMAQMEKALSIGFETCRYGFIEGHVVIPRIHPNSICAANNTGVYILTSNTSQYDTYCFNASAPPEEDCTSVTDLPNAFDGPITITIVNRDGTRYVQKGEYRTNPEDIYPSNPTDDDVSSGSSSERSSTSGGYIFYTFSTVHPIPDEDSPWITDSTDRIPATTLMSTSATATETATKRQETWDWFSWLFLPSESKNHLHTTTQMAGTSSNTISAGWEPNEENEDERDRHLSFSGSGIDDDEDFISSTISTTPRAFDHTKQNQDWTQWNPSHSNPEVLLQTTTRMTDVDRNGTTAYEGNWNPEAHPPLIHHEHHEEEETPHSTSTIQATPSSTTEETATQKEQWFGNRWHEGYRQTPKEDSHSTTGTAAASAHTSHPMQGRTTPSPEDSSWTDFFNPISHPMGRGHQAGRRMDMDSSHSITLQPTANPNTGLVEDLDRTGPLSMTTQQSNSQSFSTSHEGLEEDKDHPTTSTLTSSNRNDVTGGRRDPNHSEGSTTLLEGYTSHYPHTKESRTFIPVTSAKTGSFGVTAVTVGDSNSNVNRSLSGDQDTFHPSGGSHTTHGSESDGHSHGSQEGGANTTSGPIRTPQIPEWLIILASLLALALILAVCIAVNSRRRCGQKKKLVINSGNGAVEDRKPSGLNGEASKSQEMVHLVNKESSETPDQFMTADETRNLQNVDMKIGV

For the test, the target named is Chitinase 3-like protein 1 (Chi3l1), recombinant (UniProt P36222). Kind of test: co-IP.

“CD44 (from UniProt P16070 21-742) (receptor)”: the binding result is “binds”.

The values above are taken from doi:10.1101/2021.10.01.462786.
